Some of the results follow.

Chains of the proteins cited; added tags and fusions are not shown. Lines headed by an entry give the natural chain unless they say otherwise; changes in a name come on top.
UniProt Q9UGU0: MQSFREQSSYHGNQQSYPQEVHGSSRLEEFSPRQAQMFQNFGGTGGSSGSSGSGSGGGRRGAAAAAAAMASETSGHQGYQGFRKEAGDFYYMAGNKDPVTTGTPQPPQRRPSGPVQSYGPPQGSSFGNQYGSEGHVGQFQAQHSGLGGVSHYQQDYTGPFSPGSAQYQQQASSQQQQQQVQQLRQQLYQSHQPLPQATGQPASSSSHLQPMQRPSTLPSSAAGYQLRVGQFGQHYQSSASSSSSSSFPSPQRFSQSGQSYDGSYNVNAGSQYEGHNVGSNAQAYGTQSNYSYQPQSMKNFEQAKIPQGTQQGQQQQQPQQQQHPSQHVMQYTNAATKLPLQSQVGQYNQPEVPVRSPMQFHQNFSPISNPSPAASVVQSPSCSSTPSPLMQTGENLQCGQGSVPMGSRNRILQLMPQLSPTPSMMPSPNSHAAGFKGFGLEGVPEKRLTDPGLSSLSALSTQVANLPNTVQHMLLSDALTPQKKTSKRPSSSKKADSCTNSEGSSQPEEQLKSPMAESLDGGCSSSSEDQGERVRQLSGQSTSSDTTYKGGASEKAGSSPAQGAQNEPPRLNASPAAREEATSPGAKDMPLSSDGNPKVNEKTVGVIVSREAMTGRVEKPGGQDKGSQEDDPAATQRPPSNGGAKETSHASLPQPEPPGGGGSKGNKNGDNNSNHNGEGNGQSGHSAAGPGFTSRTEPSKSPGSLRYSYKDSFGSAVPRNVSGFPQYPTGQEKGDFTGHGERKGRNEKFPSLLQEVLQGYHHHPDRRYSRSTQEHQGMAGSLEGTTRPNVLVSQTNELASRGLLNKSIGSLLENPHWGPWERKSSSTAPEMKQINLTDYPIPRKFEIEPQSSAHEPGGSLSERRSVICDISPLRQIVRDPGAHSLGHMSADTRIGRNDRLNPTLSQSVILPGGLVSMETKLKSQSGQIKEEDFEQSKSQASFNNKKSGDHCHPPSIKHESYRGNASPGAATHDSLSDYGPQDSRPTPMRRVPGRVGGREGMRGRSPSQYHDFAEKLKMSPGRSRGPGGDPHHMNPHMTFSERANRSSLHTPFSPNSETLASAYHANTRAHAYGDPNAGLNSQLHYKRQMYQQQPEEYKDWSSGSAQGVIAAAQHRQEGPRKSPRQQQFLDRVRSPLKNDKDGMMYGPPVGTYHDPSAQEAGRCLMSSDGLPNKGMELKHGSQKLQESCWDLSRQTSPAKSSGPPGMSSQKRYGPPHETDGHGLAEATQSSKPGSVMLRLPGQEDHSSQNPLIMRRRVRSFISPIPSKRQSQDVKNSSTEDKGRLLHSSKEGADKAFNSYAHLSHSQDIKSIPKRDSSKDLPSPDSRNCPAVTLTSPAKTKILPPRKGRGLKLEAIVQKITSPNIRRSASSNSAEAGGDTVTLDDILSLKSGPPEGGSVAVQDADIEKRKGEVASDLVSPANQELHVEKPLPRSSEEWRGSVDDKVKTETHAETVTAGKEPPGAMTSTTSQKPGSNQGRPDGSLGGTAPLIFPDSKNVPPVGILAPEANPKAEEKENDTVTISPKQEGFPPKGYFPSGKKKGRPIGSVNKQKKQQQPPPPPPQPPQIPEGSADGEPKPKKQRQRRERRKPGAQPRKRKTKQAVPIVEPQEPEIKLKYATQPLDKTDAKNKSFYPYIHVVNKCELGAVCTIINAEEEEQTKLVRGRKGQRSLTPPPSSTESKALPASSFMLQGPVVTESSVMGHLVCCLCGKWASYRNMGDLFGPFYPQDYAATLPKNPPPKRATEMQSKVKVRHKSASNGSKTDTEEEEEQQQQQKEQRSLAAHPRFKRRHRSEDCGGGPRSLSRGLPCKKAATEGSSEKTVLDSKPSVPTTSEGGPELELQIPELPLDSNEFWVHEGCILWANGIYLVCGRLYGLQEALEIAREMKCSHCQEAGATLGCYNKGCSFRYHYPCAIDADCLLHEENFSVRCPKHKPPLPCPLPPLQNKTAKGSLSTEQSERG
UniProt P21731: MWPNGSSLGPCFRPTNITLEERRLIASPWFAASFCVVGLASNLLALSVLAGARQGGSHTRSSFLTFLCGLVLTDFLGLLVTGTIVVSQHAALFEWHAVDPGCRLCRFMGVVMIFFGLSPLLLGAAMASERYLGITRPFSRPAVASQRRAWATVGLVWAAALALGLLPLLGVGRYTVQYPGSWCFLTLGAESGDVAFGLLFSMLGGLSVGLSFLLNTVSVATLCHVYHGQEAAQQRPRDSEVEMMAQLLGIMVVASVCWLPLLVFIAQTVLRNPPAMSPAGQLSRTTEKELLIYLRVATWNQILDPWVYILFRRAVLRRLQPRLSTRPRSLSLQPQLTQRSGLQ
UniProt P20061: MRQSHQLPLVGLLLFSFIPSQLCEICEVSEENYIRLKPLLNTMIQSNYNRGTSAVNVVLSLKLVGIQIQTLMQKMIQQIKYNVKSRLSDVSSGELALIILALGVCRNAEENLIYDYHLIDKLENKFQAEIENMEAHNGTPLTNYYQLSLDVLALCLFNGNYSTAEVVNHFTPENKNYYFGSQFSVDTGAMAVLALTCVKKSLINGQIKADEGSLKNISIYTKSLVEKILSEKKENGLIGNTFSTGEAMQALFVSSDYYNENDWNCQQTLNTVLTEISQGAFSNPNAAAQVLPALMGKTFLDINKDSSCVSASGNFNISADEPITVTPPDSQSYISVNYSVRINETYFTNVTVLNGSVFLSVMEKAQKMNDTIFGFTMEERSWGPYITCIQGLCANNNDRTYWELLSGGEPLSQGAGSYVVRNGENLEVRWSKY
UniProt P20226, whole entry, looked up: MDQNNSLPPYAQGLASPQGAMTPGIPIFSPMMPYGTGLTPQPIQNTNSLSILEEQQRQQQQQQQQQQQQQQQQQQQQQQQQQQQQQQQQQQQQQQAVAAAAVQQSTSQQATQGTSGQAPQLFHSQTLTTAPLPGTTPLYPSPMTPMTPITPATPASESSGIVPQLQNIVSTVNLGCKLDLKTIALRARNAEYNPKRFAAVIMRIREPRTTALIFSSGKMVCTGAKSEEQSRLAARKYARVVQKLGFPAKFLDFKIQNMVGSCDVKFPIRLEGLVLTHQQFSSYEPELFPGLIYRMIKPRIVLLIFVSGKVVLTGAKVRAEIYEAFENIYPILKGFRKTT
UniProt O60347: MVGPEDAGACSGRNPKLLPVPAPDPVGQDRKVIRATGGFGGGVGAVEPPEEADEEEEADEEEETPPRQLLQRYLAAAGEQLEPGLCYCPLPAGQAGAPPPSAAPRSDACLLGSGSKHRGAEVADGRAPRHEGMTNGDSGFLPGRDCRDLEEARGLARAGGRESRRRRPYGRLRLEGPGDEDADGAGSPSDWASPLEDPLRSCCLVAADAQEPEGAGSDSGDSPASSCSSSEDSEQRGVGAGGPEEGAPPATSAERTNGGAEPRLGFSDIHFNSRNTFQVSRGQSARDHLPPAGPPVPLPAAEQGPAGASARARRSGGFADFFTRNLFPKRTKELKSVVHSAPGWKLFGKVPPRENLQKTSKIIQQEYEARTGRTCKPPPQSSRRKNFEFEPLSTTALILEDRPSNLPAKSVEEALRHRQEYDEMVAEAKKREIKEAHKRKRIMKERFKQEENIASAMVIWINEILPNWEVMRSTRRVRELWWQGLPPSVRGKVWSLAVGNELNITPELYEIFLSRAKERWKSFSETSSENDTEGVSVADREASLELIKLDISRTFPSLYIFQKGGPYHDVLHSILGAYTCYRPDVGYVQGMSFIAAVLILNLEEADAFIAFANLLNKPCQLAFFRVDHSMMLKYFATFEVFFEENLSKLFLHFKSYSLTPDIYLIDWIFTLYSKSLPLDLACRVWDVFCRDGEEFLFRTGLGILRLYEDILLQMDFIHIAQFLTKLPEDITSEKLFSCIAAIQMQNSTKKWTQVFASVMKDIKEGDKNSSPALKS
UniProt Q9UI15: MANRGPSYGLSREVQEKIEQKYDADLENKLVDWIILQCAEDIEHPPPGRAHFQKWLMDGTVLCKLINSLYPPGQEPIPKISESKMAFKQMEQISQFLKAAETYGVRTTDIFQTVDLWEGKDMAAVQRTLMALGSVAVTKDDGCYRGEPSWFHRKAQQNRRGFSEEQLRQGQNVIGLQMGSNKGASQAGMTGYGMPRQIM
UniProt Q9Y4I5: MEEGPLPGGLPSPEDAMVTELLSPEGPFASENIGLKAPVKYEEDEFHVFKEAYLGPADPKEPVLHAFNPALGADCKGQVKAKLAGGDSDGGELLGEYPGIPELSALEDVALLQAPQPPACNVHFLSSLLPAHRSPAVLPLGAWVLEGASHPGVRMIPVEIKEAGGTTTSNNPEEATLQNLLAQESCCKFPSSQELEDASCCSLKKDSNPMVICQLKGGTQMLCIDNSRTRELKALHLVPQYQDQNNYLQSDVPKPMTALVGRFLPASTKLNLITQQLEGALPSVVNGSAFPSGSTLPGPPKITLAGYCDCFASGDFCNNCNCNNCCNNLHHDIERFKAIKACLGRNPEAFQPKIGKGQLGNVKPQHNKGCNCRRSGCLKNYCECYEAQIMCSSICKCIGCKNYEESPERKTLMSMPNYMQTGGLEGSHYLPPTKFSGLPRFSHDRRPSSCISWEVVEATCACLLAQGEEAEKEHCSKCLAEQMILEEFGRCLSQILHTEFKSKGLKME
UniProt Q15562, whole entry, looked up: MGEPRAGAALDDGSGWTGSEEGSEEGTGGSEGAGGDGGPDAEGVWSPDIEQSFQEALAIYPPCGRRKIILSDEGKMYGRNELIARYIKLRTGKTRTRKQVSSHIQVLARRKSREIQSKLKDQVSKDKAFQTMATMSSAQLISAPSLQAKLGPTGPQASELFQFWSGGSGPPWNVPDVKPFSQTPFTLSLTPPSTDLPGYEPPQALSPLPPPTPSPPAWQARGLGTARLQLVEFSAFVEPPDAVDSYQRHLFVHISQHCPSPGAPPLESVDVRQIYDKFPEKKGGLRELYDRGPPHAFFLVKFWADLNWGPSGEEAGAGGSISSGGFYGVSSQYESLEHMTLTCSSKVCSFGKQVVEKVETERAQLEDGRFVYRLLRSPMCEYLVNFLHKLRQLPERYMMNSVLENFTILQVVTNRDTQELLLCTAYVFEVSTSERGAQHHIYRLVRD
UniProt P54274: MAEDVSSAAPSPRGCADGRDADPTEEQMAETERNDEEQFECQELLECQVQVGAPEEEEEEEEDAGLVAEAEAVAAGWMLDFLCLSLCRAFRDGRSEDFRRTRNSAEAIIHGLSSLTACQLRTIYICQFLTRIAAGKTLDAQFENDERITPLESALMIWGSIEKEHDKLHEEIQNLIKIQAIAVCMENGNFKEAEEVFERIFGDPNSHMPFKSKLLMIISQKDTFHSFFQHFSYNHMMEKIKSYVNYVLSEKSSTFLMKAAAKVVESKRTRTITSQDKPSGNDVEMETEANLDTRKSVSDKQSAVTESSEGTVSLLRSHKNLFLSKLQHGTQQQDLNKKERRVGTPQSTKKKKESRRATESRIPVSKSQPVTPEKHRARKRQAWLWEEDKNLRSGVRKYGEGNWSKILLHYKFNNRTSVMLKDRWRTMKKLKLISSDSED
UniProt Q9UHQ7: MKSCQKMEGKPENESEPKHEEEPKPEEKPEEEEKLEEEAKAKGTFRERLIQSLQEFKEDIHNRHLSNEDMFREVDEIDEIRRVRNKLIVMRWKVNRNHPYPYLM
UniProt P42680: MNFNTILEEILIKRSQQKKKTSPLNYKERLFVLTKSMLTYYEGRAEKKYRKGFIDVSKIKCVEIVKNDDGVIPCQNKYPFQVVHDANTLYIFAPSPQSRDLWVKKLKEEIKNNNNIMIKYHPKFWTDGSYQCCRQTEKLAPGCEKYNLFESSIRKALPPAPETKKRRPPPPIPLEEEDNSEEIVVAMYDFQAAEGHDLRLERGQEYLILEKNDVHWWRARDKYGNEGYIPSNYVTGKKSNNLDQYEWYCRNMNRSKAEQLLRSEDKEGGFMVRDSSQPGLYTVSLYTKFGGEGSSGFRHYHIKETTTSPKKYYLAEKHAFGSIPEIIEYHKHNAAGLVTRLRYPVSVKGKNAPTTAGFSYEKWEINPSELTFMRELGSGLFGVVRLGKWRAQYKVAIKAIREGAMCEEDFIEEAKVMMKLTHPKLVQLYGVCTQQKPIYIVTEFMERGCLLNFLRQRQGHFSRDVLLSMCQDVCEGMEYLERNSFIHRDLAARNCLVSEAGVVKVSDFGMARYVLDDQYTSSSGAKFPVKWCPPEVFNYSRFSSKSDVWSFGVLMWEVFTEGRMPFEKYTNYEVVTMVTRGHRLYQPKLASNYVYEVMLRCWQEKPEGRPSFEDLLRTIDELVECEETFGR
UniProt Q96QE5: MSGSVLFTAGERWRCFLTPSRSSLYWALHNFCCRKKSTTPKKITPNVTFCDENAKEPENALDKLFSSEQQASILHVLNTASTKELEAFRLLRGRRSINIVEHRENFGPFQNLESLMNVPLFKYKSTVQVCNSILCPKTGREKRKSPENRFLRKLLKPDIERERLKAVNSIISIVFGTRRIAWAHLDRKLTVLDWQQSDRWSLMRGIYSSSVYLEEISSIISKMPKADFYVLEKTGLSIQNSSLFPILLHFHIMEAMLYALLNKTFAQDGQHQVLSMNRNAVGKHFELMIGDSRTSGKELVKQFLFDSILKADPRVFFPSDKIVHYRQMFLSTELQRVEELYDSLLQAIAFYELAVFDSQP

Compound in the first experiment: C1=CC=C(C=C1)[C@H](COC2=CC3=C(C=C2)NC(=O)N3)NC(=O)C4=CC=CN(C4=O)CC5=CC(=C(C=C5)F)F
Description: log2 fold change, soluble protein after heating vs DMSO (PISA); higher = thermal stabilisation; K562 lysate, 10 uM; active = over 0.2 and 3.5 SD of the protein, either way, in both replicates (recomputed). A digest of the protocol:
(§1)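 Following dounce homogenisation of K562 pellets in PBS pH 7.4 with 1 mM MgCl2, crude extract at 1 mg/mL protein was incubated for 30 min with 10 μM compound. Aliquots were then heated for 3 min over 48°C-58°C and pooled, NP-40 was added to 0.5% at 4°C, and soluble protein was recovered as the supernatant at 21,000xg for 90 min. Channel-sum-equalised TMTpro 16plex LC-MS/MS quantified this protein. Each value, from duplicates, is a log-two fold change in thermal stability relative to solvent controls.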
As to TCF20 (UniProt Q9UGU0), the log2 fold change is inactive: 0.022.

For the target TGDS (UniProt O95455), the log2 fold change was inactive: -0.01.

Consider TBXA2R (UniProt P21731), for which the log2 fold change was inactive: -0.089.

Consider TBC1D10A (UniProt Q9BXI6), for which the log2 fold change is inactive: -0.034.

For the target TCOF1 isoform 3 (UniProt Q13428), the log2 fold change is inactive: -0.075.

Consider TCN1 (UniProt P20061), for which the log2 fold change is inactive: 0.291.

For the target TECPR1 isoform 4 (UniProt Q7Z6L1), the log2 fold change is inactive: -0.236.

For the target TBCK (UniProt Q8TEA7), the log2 fold change is inactive: 0.057.

Turning to TBP (UniProt P20226), the log2 fold change is inactive: 0.02.

Turning to TENM4 (UniProt Q6N022), the log2 fold change was inactive: -0.057.

Compound in another experiment: CC1=C(SC2=C1C(=N[C@H](C3=NN=C(N32)C)CC(=O)N)C4=CC=C(C=C4)Cl)C
The experiment is described as above. A digest of the protocol: as §1
In the case of TCF20 (UniProt Q9UGU0), the log2 fold change was inactive: -0.063.

Take TGDS (UniProt O95455): the log2 fold change was inactive: 0.14.

For TBXA2R (UniProt P21731), the log2 fold change was inactive: 0.02.

As for TBC1D10A (UniProt Q9BXI6), the log2 fold change was inactive: 0.07.

TCOF1 isoform 3 (UniProt Q13428): the log2 fold change is inactive: 0.101.

Consider TCN1 (UniProt P20061), for which the log2 fold change is inactive: -0.279.

For TECPR1 isoform 4 (UniProt Q7Z6L1), the log2 fold change is inactive: -0.057.

On to TBCK (UniProt Q8TEA7), for which the log2 fold change is inactive: 0.062.

TBP (UniProt P20226): the log2 fold change was inactive: 0.049.

Turning to TENM4 (UniProt Q6N022), the log2 fold change is inactive: 0.174.

Compound in a further experiment: CC1=C2C(=CC=C1)N=C(N(C2=O)C3=CC=CC=C3C)CN4C=NC5=C(N=CN=C54)N
The experiment is described as above. In short, it runs like this:
as §1
With TBC1D12 (UniProt O60347), the log2 fold change was inactive: 0.171.

Take TAGLN3 (UniProt Q9UI15): the log2 fold change was inactive: 0.009.

Take TCEAL8 (UniProt Q8IYN2): the log2 fold change was inactive: 0.025.

Consider TASOR (UniProt Q9UK61), for which the log2 fold change is inactive: 0.033.

As for TESMIN (UniProt Q9Y4I5), the log2 fold change was inactive: 0.083.

Take TDRD15 (UniProt B5MCY1): the log2 fold change was inactive: 0.038.

For the target TEAD2 isoform 4 (UniProt Q15562), the log2 fold change was inactive: -0.346.

On to TBC1D25 (UniProt Q3MII6), for which the log2 fold change was inactive: 0.012.

TC2N (UniProt Q8N9U0): the log2 fold change was inactive: -0.099.

For TERF1 (UniProt P54274), the log2 fold change is inactive: -0.115.

As for TCEAL9 (UniProt Q9UHQ7), the log2 fold change is inactive: -0.168.

As to TCP11L2 (UniProt Q8N4U5), the log2 fold change is inactive: -0.012.

In the case of TEC (UniProt P42680), the log2 fold change is inactive: 0.114.

TFPI isoform 2 (UniProt P10646): the log2 fold change was inactive: 0.048.

For TFEB (UniProt P19484), the log2 fold change is inactive: 0.018.

Take TCF3 (UniProt X6REB3): the log2 fold change was inactive: -0.031.

TARDBP (UniProt K7EN94): the log2 fold change is inactive: 0.319.

As to TEFM (UniProt Q96QE5), the log2 fold change is inactive: 0.128.

Source of the values: the supplement of paper PMC10849652.
